Results from the supplement of paper PMC12067093, “Discovery and optimisation of a covalent ligand for TRIM25 and its application to targeted protein ubiquitination” (Chemical Science, 2025).
The other results are listed elsewhere or left out.

Compound: Cc1cc(ccc1-c1ccccc1)C(=O)N1CCCN(CC1)C(=O)CCl [compound 10]
Experiment: probe-labelled cysteine peptide fold change vs DMSO (competition) (log2 fold change); higher = less target engagement (more negative = stronger competition)
Settings: THP-1, incubation time: 4 h
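Further: competitive profiling in live THP-1 cells: cysteine peptides tagged with an iodoacetamide desthiobiotin (IA-DTB) probe, intensity after compound treatment relative to DMSO-treated cells.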

Row | Target | probe-labelled cysteine peptide fold change (10 µM) | probe-labelled cysteine peptide fold change (50 µM)
1 | CNBP_P62633_140_CGETGHVAINCSK (UniProt P62633) | 0.154 | 0.341
2 | CNBP_P62633_119+122_CYSCGEFGHIQK (UniProt P62633) | -0.085 | -0.174
3 | COPG1_Q9Y678_280_NKHEMVVYEAASAIVNLPGCSAK (UniProt Q9Y678) | -0.00816 | -0.0912
4 | CNP_P09543_335_AHITLGCAADVEAVQTGLDLLEILR (UniProt P09543) | -0.562 | 0.3
5 | CNP_P09543_111_RLDEDLAAYCR (UniProt P09543) | 0.175 | 0.0747
6 | COPS7B_Q9H9Q2_240_ATASSSAQEMEQQLAERECPPHAEQR (UniProt Q9H9Q2) | -0.218 | -0.191
7 | COPS4_Q9BT78_255_CQQLAAYGILEK (UniProt Q9BT78) | -0.0014 | 0.0431
8 | CNNM4_Q6P4Q7_108_STSCLELTK (UniProt Q6P4Q7) | -0.064 | 0.0895
9 | COMP_P49747_371_GDACDDDIDGDR (UniProt P49747) | -1.61 | -0.768
10 | COPE_O14579_225_CSPTLLLLNGQAACHMAQGR (UniProt O14579) | 0.0563 | 0.158
11 | CNN2_Q99439_215_CASQVGMTAPGTRR (UniProt Q99439) | -0.353 | -0.955
12 | COMP_P49747_348_WGDACDNCR (UniProt P49747) | -0.311 | 0.114
13 | COPG1_Q9Y678_230_SPFAYCMMIR (UniProt Q9Y678) | 0.119 | -0.0435
14 | CNBP_P62633_119_CYSCGEFGHIQK (UniProt P62633) | 0.115 | 0.0151
15 | CNPY3_Q9BT09_104_LIEVTETICKR (UniProt Q9BT09) | 0.0226 | 0.0235
16 | COG5_Q9UP83_64_ELLQDGCYSDFLNEDFDVK (UniProt Q9UP83) | -0.0605 | -0.267
17 | COQ8A_Q8NI60_406_RELALECDYQR (UniProt Q8NI60) | 0.00187 | 0.00657
18 | COG1_Q8WTW3_72_CAVGLVDAVK (UniProt Q8WTW3) | 0.121 | -0.197
19 | COL4A3BP_Q9Y5P4_84_AVITPHDFDECRFDISVNDSVWYLR (UniProt Q9Y5P4) | -0.152 | -0.0783
20 | CNOT6L_Q96LI5_283_HVDGCAIFFK (UniProt Q96LI5) | 0.0588 | 0.271
21 | COMMD4_Q9H0A8_34_LLCSQVLK (UniProt Q9H0A8) | 0.0575 | 0.219

Row | Target | probe-labelled cysteine peptide fold change (10 µM) | probe-labelled cysteine peptide fold change (50 µM)
22 | COG1_Q8WTW3_625_LCQSLGELCPHLK (UniProt Q8WTW3) | -0.144 | -0.347
23 | CNOT1_A5YKK6_1706_AYGSPWCNK (UniProt A5YKK6) | 0.0353 | 0.0153
24 | CNPY2_Q9Y2B0_171_RTDLCDHALHISHDEL (UniProt Q9Y2B0) | 0.0561 | 0.205
25 | COPS7B_Q9H9Q2_157_NQLLEVDFCIGR (UniProt Q9H9Q2) | 0.0835 | -0.0523
26 | COMMD9_Q9P000_47_KLLDVTCSSLSVTQEEAEELLQALHR (UniProt Q9P000) | 0.293 | -0.214
27 | COPS7B_Q9H9Q2_181_TLHEWCDGCEAVLLGIEQQVLR (UniProt Q9H9Q2) | -0.0109 | -0.138
28 | COPA_P53621_453_VQVPNCDEIFYAGTGNLLLR (UniProt P53621) | -0.252 | -0.118
29 | COMMD4_Q9H0A8_107_EHAASLCR (UniProt Q9H0A8) | 0.117 | -0.373
30 | COQ5_Q5HYK3_170_VVVCDINK (UniProt Q5HYK3) | 0.165 | 0.15
31 | COMT_P21964_145_LITIEINPDCAAITQR (UniProt P21964) | 0.142 | 0.0298
32 | COMT_P21964_207_YLPDTLLLEECGLLR (UniProt P21964) | -0.00711 | -0.0131
33 | CNOT1_A5YKK6_50_CLFSHVDFSGDGK (UniProt A5YKK6) | 0.349 | -0.157
34 | COPS3_Q9UNS2_149_MQMNTNQLTSIHADLCQLCLLAK (UniProt Q9UNS2) | 0.0827 | -0.189
35 | COG1_Q8WTW3_87_ATDQYCAR (UniProt Q8WTW3) | -0.109 | -0.128
36 | CNBP_P62633_98_EQCCYNCGKPGHLAR (UniProt P62633) | 0.0498 | -0.421
37 | COQ9_O75208_153_DGSELILHFVTQCNTR (UniProt O75208) | 0.0842 | 0.187
38 | CNP_P09543_252_RPPGVLHCTTK (UniProt P09543) | -0.1 | -0.246
39 | COA7_Q96BR5_187_ACDLGHIWACANASR (UniProt Q96BR5) | 0.0578 | 0.0556
40 | COPA_P53621_380_FPVFNMSYNPAENAVLLCTR (UniProt P53621) | 0.0442 | 0.139
41 | CNBP_P62633_150_CGETGHVAINCSK (UniProt P62633) | -0.103 | 0.0483
42 | COPA_P53621_522_KLDALCNIHENIR (UniProt P53621) | -0.0301 | 0.0637

Row | Target | probe-labelled cysteine peptide fold change (10 µM) | probe-labelled cysteine peptide fold change (50 µM)
43 | COPG1_Q9Y678_440_ETGLSHLCEFIEDCEFTVLATR (UniProt Q9Y678) | 0.0873 | 0.125
44 | COPS6_Q7L5N1_283_TDFYDQCNDVGLMAYLGTITK (UniProt Q7L5N1) | 0.015 | 0.222
45 | CNOT7_Q9UIV1_13_ICEVWACNLDEEMKK (UniProt Q9UIV1) | 0.177 | -0.3
46 | CORO1A_P31146_332_GLEVNKCEIAR (UniProt P31146) | -0.447 | -1.1
47 | COPG1_Q9Y678_516_CVMDDDNEVR (UniProt Q9Y678) | 0.118 | 0.338
48 | COL4A3BP_Q9Y5P4_185_YFDACADAVSKDELQR (UniProt Q9Y5P4) | 0.0339 | -0.287
49 | COPA_P53621_245_AWEVDTCR (UniProt P53621) | -0.0547 | -0.053
50 | COPG2_Q9UBF2_387_VVVVQAISALCQK (UniProt Q9UBF2) | 0.201 | 0.374
51 | COPS6_Q7L5N1_143_QVCEIIESPLFLK (UniProt Q7L5N1) | 0.0642 | 0.121
52 | COLGALT1_Q8NBJ5_283_QAEVQMYVCNKEEYGFLPVPLR (UniProt Q8NBJ5) | 0.0375 | -0.273
53 | COPA_P53621_380_SGSKFPVFNMSYNPAENAVLLCTR (UniProt P53621) | 0.183 | -0.568
54 | COPB2_P35606_56_TFEVCDLPVR (UniProt P35606) | -0.0455 | 0.0775
55 | CNN2_Q99439_164_AGQCVIGLQMGTNK (UniProt Q99439) | 0.136 | -0.263
56 | COPS7B_Q9H9Q2_110_CIPYSVLLK (UniProt Q9H9Q2) | 0.293 | -0.0301
57 | CNN2_Q99439_175_CASQSGMTAYGTR (UniProt Q99439) | 0.188 | -0.502
58 | COPB1_P53618_248_CIYNLLQSSSPAVKYEAAGTLVTLSSAPTAIK (UniProt P53618) | 0.0928 | 0.0416
59 | COPS4_Q9BT78_232_HALHCTILASAGQQR (UniProt Q9BT78) | 0.137 | 0.0952
60 | CNPY2_Q9Y2B0_86_SEAHLTELLEEICDR (UniProt Q9Y2B0) | -0.396 | 0.301
61 | COPG2_Q9UBF2_230_SQFAYCMLIR (UniProt Q9UBF2) | -0.504 | 0.323
62 | COQ8A_Q8NI60_620_KMGGSFLICSK (UniProt Q8NI60) | -0.389 | -0.606
63 | CNBP_P62633_122_CYSCGEFGHIQK (UniProt P62633) | 0.0889 | 0.0765

From no. 44 to 46, as listed above:
Row | Target | probe-labelled cysteine peptide fold change (10 µM) | probe-labelled cysteine peptide fold change (50 µM)
44 | COPS6_Q7L5N1_283_TDFYDQCNDVGLMAYLGTITK (UniProt Q7L5N1) | 0.015 | 0.222
45 | CNOT7_Q9UIV1_13_ICEVWACNLDEEMKK (UniProt Q9UIV1) | 0.177 | -0.3
46 | CORO1A_P31146_332_GLEVNKCEIAR (UniProt P31146) | -0.447 | -1.1

Next results follow.

Row | Target | probe-labelled cysteine peptide fold change (10 µM) | probe-labelled cysteine peptide fold change (50 µM)
64 | COG6_Q9Y2V7_354_HVTTQGVEENIQEVVGHITEGVCRPLK (UniProt Q9Y2V7) | 0.0919 | 0.17
65 | COPB1_P53618_888_ALSGYCGFMAANLYAR (UniProt P53618) | 0.0772 | -0.08
66 | CNTLN_Q9NXG0_228_ECVQNK (UniProt Q9NXG0) | -0.122 | -0.399
67 | CNOT1_A5YKK6_420_HAEGQLSFIQHSLINPEIFCFADYPCHTVATDILK (UniProt A5YKK6) | 0.0642 | 0.0353
68 | COPG1_Q9Y678_735_DCDPTTGETDDEGYEDEYVLEDLEVTVADHIQK (UniProt Q9Y678) | 0.022 | -0.107
69 | COL4A3BP_Q9Y5P4_65_SEDETEYGCR (UniProt Q9Y5P4) | 0.0067 | 0.372
70 | COG4_Q9H9E3_310_YLQVECDR (UniProt Q9H9E3) | 0.0654 | 0.161
71 | COLGALT1_Q8NBJ5_283_QAEVQMYVCNK (UniProt Q8NBJ5) | 0.265 | 0.751
72 | COQ8B_Q96D53_508_AHIACR (UniProt Q96D53) | -0.221 | -1.08
73 | COPA_P53621_580_GNNVYCLDR (UniProt P53621) | 0.134 | -0.0303
74 | CNOT10_Q9H9A5_327_ALQENDNVCAQLSAGSTDPGK (UniProt Q9H9A5) | 0.225 | 0.476
75 | CNTRL_Q7Z7A1_1451_EADRLLAEAESELSCTK (UniProt Q7Z7A1) | 0.121 | 0.0492
76 | CMPK2_Q5EBM0_422_MENPGCHVVDASPSR (UniProt Q5EBM0) | -0.101 | 0.0513
77 | COMMD3_Q9UBI1_62_HCHAAAATYILEAGK (UniProt Q9UBI1) | 0.178 | 0.246
78 | COPB2_P35606_234_TCVQTLEGHAQNVSCASFHPELPIIITGSEDGTVR (UniProt P35606) | -0.0371 | 0.224
79 | COIL_P38432_126_AFQLEEGEETEPDCK (UniProt P38432) | 0.0772 | -0.122
80 | COPG1_Q9Y678_813_FLGMHPCER (UniProt Q9Y678) | 0.00203 | -0.0568
81 | CNBP_P62633_161_CGESGHLAR (UniProt P62633) | 0.118 | 0.129

Taken from above:
For probe-labelled cysteine peptide fold change (50 µM), COG4_Q9H9E3_310_YLQVECDR (UniProt Q9H9E3) is entered as 0.161
For probe-labelled cysteine peptide fold change (50 µM), CNOT10_Q9H9A5_327_ALQENDNVCAQLSAGSTDPGK (UniProt Q9H9A5) is entered as 0.476
